This note sets out measurements from paper PMC4924701.

Chains of the proteins cited; added tags and fusions are not shown. Lines headed by an entry give the natural chain unless they say otherwise; changes in a name come on top.
UniProt P36888: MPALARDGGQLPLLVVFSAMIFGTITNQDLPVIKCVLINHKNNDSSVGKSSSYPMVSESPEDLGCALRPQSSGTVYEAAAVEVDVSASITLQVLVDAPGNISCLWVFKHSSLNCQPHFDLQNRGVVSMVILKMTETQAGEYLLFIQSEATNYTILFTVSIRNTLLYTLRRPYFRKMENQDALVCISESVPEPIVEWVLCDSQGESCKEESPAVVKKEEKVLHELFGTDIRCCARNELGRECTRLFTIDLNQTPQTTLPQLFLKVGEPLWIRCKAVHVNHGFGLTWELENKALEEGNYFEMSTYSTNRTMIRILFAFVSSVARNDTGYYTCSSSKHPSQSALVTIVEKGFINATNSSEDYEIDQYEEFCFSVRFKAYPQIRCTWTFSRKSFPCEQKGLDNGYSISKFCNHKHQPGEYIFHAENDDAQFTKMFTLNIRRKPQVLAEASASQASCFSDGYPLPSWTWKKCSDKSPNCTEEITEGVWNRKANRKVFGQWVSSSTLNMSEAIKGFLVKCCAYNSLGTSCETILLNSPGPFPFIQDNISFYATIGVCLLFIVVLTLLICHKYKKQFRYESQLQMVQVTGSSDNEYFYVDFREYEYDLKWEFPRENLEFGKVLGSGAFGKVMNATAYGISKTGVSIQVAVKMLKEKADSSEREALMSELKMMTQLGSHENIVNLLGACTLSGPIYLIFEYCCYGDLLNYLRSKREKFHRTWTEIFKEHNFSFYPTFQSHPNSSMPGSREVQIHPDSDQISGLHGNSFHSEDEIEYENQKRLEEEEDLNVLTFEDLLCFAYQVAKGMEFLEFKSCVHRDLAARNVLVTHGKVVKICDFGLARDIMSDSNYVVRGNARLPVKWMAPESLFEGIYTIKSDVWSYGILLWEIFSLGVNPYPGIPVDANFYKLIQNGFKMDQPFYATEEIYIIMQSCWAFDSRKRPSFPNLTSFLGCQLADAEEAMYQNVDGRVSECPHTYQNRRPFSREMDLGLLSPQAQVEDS

No constants are given. Whether binding was seen depends on the method and setting. In cells and extracts the contact can be indirect. A result given as binding can be weak or reduced; the word gives no strength. Tags and fused reporters may be left off the sequences shown.

This test deals with T1, FLAG-tagged GADS (GRB2-related adaptor protein 2, GRAP2) (human) (UniProt O75791).
T1 sequence: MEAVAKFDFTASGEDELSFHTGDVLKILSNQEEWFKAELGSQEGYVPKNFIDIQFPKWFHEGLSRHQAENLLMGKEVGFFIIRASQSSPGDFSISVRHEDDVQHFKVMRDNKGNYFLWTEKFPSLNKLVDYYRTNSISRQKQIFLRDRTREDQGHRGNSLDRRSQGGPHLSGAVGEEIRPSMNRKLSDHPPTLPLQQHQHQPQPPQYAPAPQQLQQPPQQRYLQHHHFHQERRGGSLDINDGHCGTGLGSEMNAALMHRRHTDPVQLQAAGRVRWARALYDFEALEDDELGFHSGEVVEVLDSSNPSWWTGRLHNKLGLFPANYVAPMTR
In words: co-IP; COS-1 cells co-transfected with FLAG-GADS and FLT3 plasmids, stimulated or not with 100 ng/ml FL for five minutes before lysis; anti-FLAG immunoprecipitation, Western blotting. (In general: A western blot detects proteins with antibodies after separation by electrophoresis.)

For “FLT3-ITD (internal tandem duplication mutant) (from UniProt P36888) (receptor)”, the binding entry was “binds”.
